# Measurements: PubChem BioAssay AID540276 (National Center for Advancing Translational Sciences (NCATS), 2011)
# Values joined by “and” are separate entries in the source; they are usually repeats but may differ in a detail not shown here. Equal values may be shown once. The whole screen tested about 300,000 compounds, of which about 5,400 (1.8%) were called active. Inconclusive results, whose numbers are uncertain, are shown with a selection of clear calls. Calls come from the whole dose curve; tested in HEK293 cells. Potencies beside an inconclusive call are fits to weak or partial responses and may not hold up.
# Assay: qHTS for inhibitors of binding or entry into cells for Marburg Virus
# Settings: Marburg virus pseudotyped entry inhibition, cell reporter; series mostly up to 37.8 µM
# Potency is the fitted concentration of half-maximal effect.
row,SMILES,Potency
1,Nc1cc([N+](=O)[O-])ccc1Nc1ccccc1,"inconclusive: 11.2 µM [inhibitor, single point]"
2,COc1cccc(NC(=O)NCc2ccccc2Cl)c1,"inconclusive: 5.01 µM [activator, partial curve]"
3,Cc1cccc(C)c1OCc1cc(C(=O)NCc2cn(C)nc2C)no1,inactive
4,Nc1ncc(-c2ccccc2)c(-c2ccc(O)cc2O)n1,"inconclusive: 11.2 µM [inhibitor, partial curve, poor fit]"
5,COc1ccc(OC)c(S(=O)(=O)N(C)CC(=O)Nc2ccccc2OC)c1,inactive
6,COC(=O)C1(CCSC)NC(c2ccc(O)c(OC)c2)C2C(=O)N(c3ccc(C)cc3)C(=O)C21 (stereo not given),inactive
7,CC(C)Oc1ccccc1C1CC(=O)Nc2cc3c(cc21)OCCO3 (stereo not given),"inconclusive: 0.366 µM [inhibitor, full curve]"
8,O=C(CN(Cc1ccco1)S(=O)(=O)c1cccs1)Nc1ccccc1C(F)(F)F,"inconclusive: 3.55 µM [activator, single point]"
9,CC1CN(C(=S)SCC(=O)c2ccc([N+](=O)[O-])cc2)CC(C)O1 (stereo not given),"inconclusive: 11.2 µM [inhibitor, partial curve, poor fit]"
10,CCOC(=O)c1csc(NC(=O)c2ccc(S(=O)(=O)N(C)C)cc2)n1,inactive
11,O=C(Nc1ccccc1Oc1cccnc1)C1CCCN(C/C=C/c2ccc(F)cc2)C1 (stereo not given),"inconclusive: 35.5 µM [inhibitor, single point]"
12,CCOC(=O)c1sc(/N=C/c2c(O)n(-c3cccc(C)c3)c(=O)[nH]c2=O)c(C#N)c1C,"inconclusive: 14.1 µM [activator, partial curve]"
13,O=C(Nc1ccc(F)cc1)c1ccc(-n2ccnc2)nc1,inactive
14,NNc1nc2c(F)cccc2s1,"inconclusive: 3.66 µM [activator, single point]"
15,COc1ccc(N=c2oc3cc(O)ccc3cc2C(=O)NCC2CCCO2)cc1 (stereo not given),inactive
16,CCOC(=O)c1ccc(NC(=O)C23CCC(C)(C(=O)O2)C3(C)C)cc1 (stereo not given),"inconclusive: 29.1 µM [activator, single point]"
17,Cc1cc(C)cc(N(CC(=O)NCc2ccco2)C(=O)CCC(=O)Nc2ccccn2)c1,"inconclusive: 22.4 µM [inhibitor, single point]"
18,CCC(C)NC(=O)CSc1nnc(-c2ccoc2C)n1CC1CCCO1 (stereo not given),inactive
19,COc1cccc(C(=O)OCC(=O)N2CCc3ccccc3C2)c1OC,"inconclusive: 6.31 µM [activator, single point]"
20,N#Cc1ccc(NC(=O)Nc2ccc(Cl)cc2)cc1,"inconclusive: 35.5 µM [inhibitor, single point]"
21,Cc1nc(SCc2nc3ccccc3[nH]2)c2oc3ccccc3c2n1,"inconclusive: 35.5 µM [inhibitor, single point]"
22,COc1ccc(O)c(C2=Nc3ccccc3N=C(c3ccco3)C2)c1,inactive
23,CC(C)CC(=O)Nc1ccnn1C1CCN(C(=O)c2ccc(F)cc2Cl)CC1,"inconclusive: 0.282 µM [activator, partial curve, poor fit]"
24,CCOc1ccc(/C=N/n2cnnc2)cc1,inactive

# Sorted by count of non-hydrogen atoms (rising): 3 of the compounds above
row,SMILES,Potency
24,CCOc1ccc(/C=N/n2cnnc2)cc1,inactive
21,Cc1nc(SCc2nc3ccccc3[nH]2)c2oc3ccccc3c2n1,"inconclusive: 35.5 µM [inhibitor, single point]"
8,O=C(CN(Cc1ccco1)S(=O)(=O)c1cccs1)Nc1ccccc1C(F)(F)F,"inconclusive: 3.55 µM [activator, single point]"

# Next records

row,SMILES,Potency
1,CCCCNc1c2c3c(cccc3n(C)c1=O)C(=O)c1ccccc1-2,"inconclusive: 7.3 µM [inhibitor, partial curve, poor fit]"
2,Cc1nc2ccc(NC(=O)CS(=O)(=O)c3ccc(F)cc3)cc2s1,"inconclusive: 35.5 µM [activator, single point]"
3,CCOC(=O)c1ccccc1NC(=O)c1cc2c(s1)-c1ccccc1SC2,"inconclusive: 3.16 µM [inhibitor, single point]"
4,CCn1c(C)c(C)c2cc(C(=O)NCCCN3CCN(C)CC3)ccc21,"inconclusive: 1.58 µM [inhibitor, single point]"
5,O=C(CCCn1c(=O)c2sccc2n(Cc2ccc(Cl)cc2)c1=O)NCc1ccc2c(c1)OCO2,inactive
7,COc1cc(CNC(C)c2ccccc2)c(Br)cc1OCC(N)=O (stereo not given),inactive
8,O=C(Nc1cnc2ccccn2c1=O)c1ccc(Cl)cc1,"inconclusive: 1.83 µM [activator, partial curve]"
9,Cc1cccc(-n2ncc3c(NCCCN4CCCC4=O)ncnc32)c1,inactive
10,Cc1cc(C)c2c(CC(=O)Nc3nccs3)coc2c1,inactive
11,Cc1ccccc1Cn1c(=O)n(CCc2ccccc2)c(=O)c2sc3ccccc3c21,inactive
12,CN(C)c1ccc(C(C(=O)NCC2CCCO2)N(C(=O)c2snc(C(N)=O)c2N)c2ccccc2)cc1 (stereo not given),"inconclusive: 10 µM [inhibitor, partial curve, poor fit]"
13,COc1ccc(C)c2sc(N(CCCN(C)C)C(=O)c3ccc(S(=O)(=O)N4CCc5ccccc5C4)cc3)nc12,"inconclusive: 35.5 µM [inhibitor, single point]"
14,COc1cc(C2c3c(-c4ccccc4)n[nH]c3C(=O)N2c2ccc(C(=O)O)cc2)ccc1O (stereo not given),inactive
15,COc1cccc(CCc2nnc(CCC(=O)N3CCN(Cc4ccccn4)CC3)o2)c1,"inconclusive: 35.5 µM [activator, single point]"
16,NC1=NC2=C(CCCC2)C2(CCCCC2)S1,"inconclusive: 4.61 µM [inhibitor, partial curve, poor fit]"
17,Cc1ccc(NC(=O)Nc2cccc([N+](=O)[O-])c2)cc1F,"inconclusive: 35.5 µM [inhibitor, single point]"
18,CCC(=O)Nc1cccc(C(=O)c2ccccc2)c1,inactive
19,CCc1ccc2nc(NC(=O)CSCc3c(C)noc3C)sc2c1,inactive
20,CCCOP(=O)(OCCC)C(NC(=O)c1cc(OC)c(OC)c(OC)c1)c1ccccc1 (stereo not given),"inconclusive: 2.82 µM [inhibitor, full curve, poor fit]"
21,CSCCC(NS(=O)(=O)c1ccc(Cl)cc1)C(=O)OCC(=O)c1c(C)[nH]c2ccccc12 (stereo not given),active: 11.6 µM
22,COc1ccc(NC(=O)CSc2nnc(-c3cnccn3)n2C)cc1OC,"inconclusive: 35.5 µM [inhibitor, single point]"
23,Cc1cccc(C)c1OCc1nnc(SCC(=O)Nc2nccs2)n1-c1ccccc1,"inconclusive: 16.4 µM [inhibitor, partial curve, poor fit]"
24,CCC(=O)Nc1ccc2nc(SCC(=O)N3CCOCC3)sc2c1,inactive

row,SMILES,Potency
1,CC(=O)Nc1ccc(Nc2c(CCC(C)C)c(C)c(C#N)c3nc4ccccc4n23)cc1,"inconclusive: 3.16 µM [inhibitor, partial curve, poor fit]"
2,CC(C)(C)c1cn(-c2ccc(Cl)cc2)c(=S)[nH]1,"inconclusive: 23.1 µM [activator, single point]"
3,Cc1ccc(CNC(=O)c2cc(S(=O)(=O)N3CCCCC3)ccc2N2CCOCC2)cc1,inactive
4,CC[C@H](C)[C@H](NC(=O)c1ccc(Cl)cc1)C(=O)OCC(=O)c1ccc2c(c1)NC(=O)CO2,"inconclusive: 35.5 µM [inhibitor, single point]"
5,CCCn1c(=N)n(CC(O)c2ccc(C)cc2)c2ccccc21 (stereo not given),"inconclusive: 6.31 µM [inhibitor, partial curve, poor fit]"
6,COc1ccc(CCN(C)C(=O)c2cccc(S(=O)(=O)NCc3ccccc3)c2)cc1OC,"inconclusive: 0.562 µM [inhibitor, partial curve, poor fit]"
7,Cc1cc(C)cc(C(=O)NCC(=O)OCC(=O)N(C)C2CCS(=O)(=O)C2)c1 (stereo not given),"inconclusive: 35.5 µM [activator, single point]"
8,CCOc1ccc(S(=O)(=O)c2c(C(=O)c3ccc(C)c(C)c3)cnc3ccccc23)cc1,inactive
9,CCOC(=O)c1ccc(Nc2nnc(C(C)(C)C)c(=O)[nH]2)cc1,"inconclusive: 0.651 µM [inhibitor, partial curve, poor fit]"
10,CC(C)(C)NC(=O)/C=C/c1cccc(C(F)(F)F)c1,"inconclusive: 29.1 µM [activator, single point]"
11,CCc1sc(NS(C)(=O)=O)nc1-c1ccccc1,"inconclusive: 29.1 µM [activator, single point]"
12,COc1ccc(C(=O)Nc2c(O)ccc3ccccc23)cc1,"inconclusive: 5.62 µM [inhibitor, single point]"
13,CN(C)CCNS(=O)(=O)c1ccc(N2CCN(c3ccc(F)cc3)CC2)c([N+](=O)[O-])c1,active: 18.4 µM
14,CC1(C)CC(=O)N(c2cc(Cl)cc(Cl)c2)C(=O)C1,"inconclusive: 1.58 µM [inhibitor, partial curve, poor fit]"
15,CCOC(=O)CC1C(=O)NCCN1S(=O)(=O)c1cc(Cl)c(Cl)cc1Cl (stereo not given),active: 1.58 µM
16,CC(=O)NC1=NN(C(C)=O)C(c2ccccn2)S1 (stereo not given),"inconclusive: 6.31 µM [activator, single point]"
17,CC(=O)Nc1ccc(S(=O)(=O)NCC(=O)NCCc2ccc(S(N)(=O)=O)cc2)cc1,inactive
18,O=C(CNc1ccc(Br)cc1)c1ccc(O)cc1,inactive
19,O=C(/C=C/Nc1cccc(F)c1)c1ccco1,"inconclusive: 18.3 µM [inhibitor, single point]"
20,COc1ccc(C(=O)C2CCN(C(=O)c3ccc(OC)cc3)CC2)cc1,"inconclusive: 35.5 µM [inhibitor, single point]"
21,CC(C)N(C(=O)Cn1cc(S(=O)(=O)CC(=O)NCc2ccccc2)c2ccccc21)C(C)C,inactive
22,CC(=O)c1c(C(C)=O)c(C)n(-c2ccc3ncccc3c2)c1C,inactive
